The source of these data is the supplement of paper PMC10849652.

The chains behind the UniProt entries cited, without tags or fusion partners. Where a name states a change or a piece, a line headed by the entry shows the natural chain unless it says otherwise.
UniProt Q8NEB9, whole entry, looked up: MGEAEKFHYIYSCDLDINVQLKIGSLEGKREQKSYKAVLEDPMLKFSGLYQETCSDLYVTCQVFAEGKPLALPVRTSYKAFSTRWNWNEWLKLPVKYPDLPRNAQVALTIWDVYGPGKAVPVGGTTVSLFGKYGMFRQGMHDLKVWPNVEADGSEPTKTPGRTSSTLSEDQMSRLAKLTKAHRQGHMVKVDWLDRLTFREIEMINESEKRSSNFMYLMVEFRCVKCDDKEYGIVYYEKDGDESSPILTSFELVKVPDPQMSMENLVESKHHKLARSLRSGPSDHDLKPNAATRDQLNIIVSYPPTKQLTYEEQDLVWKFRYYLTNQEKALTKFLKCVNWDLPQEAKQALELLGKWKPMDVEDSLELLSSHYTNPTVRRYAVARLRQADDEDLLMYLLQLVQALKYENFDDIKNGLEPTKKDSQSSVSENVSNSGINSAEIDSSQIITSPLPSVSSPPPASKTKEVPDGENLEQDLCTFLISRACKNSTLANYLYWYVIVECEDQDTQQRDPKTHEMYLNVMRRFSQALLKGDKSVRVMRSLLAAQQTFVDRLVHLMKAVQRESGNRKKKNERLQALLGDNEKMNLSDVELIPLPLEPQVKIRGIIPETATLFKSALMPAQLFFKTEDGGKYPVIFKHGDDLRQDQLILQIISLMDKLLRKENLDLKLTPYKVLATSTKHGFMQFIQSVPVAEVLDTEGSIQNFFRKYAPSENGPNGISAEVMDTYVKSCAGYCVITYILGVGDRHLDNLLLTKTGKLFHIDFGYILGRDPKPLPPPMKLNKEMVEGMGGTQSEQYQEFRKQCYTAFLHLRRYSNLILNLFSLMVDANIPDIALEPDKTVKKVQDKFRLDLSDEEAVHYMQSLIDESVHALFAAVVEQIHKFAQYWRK
UniProt Q9Y237, whole entry, looked up: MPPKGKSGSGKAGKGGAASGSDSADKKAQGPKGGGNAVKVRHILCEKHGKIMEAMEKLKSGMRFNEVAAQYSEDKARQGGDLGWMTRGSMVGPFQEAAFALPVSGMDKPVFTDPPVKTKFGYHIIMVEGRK
UniProt Q8IUZ5: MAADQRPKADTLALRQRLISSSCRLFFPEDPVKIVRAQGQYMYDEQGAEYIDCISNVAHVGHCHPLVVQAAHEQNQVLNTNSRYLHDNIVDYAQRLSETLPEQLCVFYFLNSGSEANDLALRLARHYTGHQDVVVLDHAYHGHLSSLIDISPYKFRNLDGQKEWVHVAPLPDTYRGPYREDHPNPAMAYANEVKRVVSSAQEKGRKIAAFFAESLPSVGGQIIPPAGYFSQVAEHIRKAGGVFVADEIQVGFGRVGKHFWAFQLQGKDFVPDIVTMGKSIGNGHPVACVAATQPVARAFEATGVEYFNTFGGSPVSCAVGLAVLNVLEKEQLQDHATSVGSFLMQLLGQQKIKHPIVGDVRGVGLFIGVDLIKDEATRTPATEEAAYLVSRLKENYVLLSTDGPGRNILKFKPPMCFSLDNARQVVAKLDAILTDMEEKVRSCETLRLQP
UniProt P37287: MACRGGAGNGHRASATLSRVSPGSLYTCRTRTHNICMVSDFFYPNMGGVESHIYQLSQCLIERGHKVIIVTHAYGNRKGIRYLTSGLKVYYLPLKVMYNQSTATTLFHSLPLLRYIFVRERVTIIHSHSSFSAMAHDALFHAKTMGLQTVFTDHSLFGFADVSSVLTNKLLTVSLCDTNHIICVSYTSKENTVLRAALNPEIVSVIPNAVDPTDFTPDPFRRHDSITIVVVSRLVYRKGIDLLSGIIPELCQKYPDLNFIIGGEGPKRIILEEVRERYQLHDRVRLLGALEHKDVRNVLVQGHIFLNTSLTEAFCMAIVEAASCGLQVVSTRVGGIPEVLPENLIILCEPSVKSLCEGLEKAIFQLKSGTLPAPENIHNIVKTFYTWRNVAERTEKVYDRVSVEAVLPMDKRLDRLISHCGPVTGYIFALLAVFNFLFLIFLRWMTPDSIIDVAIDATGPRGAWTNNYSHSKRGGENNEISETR
UniProt Q96S99: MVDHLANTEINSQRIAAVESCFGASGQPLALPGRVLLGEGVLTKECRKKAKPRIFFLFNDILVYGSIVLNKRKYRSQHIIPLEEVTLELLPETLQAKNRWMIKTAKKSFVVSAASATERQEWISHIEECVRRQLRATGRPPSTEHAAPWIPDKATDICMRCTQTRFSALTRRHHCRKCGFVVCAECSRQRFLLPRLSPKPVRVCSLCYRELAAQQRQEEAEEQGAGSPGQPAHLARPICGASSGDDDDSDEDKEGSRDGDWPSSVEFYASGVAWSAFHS
UniProt O15173: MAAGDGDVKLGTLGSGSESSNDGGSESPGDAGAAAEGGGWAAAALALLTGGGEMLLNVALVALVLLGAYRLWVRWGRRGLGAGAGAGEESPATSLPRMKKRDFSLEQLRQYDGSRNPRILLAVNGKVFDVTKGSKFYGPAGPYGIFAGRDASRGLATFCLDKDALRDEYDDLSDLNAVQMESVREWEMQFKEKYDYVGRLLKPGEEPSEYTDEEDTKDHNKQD
UniProt Q8N4L2: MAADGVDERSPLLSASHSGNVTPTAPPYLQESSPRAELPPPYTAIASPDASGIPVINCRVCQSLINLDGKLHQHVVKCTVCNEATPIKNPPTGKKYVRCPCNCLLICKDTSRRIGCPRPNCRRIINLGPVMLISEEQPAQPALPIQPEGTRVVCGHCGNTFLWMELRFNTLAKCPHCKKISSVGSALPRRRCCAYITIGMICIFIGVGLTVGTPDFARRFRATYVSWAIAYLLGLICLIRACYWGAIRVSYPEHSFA
UniProt P19174: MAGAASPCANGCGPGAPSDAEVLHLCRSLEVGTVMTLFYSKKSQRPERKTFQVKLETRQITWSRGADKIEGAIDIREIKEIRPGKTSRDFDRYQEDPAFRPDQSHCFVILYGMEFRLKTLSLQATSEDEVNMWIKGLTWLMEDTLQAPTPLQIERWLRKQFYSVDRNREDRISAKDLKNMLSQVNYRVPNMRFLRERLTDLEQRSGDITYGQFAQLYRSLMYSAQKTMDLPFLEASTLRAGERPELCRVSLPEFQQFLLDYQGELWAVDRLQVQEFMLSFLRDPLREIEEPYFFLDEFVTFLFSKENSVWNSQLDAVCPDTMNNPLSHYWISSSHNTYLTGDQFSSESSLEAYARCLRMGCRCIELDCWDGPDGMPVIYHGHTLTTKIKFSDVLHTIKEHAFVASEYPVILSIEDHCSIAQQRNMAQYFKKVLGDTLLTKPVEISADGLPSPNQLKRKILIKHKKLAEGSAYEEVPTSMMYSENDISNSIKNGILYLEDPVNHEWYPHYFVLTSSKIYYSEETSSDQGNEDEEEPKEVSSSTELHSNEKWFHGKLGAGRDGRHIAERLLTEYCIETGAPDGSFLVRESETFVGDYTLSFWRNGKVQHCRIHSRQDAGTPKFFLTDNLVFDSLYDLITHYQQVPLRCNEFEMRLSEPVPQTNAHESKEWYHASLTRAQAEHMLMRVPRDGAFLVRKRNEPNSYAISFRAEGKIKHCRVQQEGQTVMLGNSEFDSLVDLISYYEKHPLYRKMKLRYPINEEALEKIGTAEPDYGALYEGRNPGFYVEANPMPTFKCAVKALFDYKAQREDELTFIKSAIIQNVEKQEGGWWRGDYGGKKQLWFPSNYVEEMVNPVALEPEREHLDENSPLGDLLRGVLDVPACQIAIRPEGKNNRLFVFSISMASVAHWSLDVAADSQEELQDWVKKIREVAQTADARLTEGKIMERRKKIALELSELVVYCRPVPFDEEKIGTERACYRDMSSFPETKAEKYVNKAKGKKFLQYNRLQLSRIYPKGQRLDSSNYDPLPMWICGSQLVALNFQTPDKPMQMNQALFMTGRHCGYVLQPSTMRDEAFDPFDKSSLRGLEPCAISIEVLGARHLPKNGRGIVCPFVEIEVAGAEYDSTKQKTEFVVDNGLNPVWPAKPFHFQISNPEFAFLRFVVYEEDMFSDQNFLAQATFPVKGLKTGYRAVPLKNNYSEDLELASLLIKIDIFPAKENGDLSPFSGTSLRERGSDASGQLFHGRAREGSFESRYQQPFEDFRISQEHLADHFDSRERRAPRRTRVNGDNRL
UniProt P00558: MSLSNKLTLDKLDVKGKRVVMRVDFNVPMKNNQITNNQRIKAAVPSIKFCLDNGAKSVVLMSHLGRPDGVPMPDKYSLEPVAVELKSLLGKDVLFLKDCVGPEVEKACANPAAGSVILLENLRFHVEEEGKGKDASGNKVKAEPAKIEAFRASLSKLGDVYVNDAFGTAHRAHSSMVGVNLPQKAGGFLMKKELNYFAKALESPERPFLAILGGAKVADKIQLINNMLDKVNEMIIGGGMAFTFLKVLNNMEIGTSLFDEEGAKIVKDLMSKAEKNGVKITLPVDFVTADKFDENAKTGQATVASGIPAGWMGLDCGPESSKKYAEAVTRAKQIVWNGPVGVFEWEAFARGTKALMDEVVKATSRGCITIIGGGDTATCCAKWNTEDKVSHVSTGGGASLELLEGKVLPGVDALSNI
UniProt Q00169: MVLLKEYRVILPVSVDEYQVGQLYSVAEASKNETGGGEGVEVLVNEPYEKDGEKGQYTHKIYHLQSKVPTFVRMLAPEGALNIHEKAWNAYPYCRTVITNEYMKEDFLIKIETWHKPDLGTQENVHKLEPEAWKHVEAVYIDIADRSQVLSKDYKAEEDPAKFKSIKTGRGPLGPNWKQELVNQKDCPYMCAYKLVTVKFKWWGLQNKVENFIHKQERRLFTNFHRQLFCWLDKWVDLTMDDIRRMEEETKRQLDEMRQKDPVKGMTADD
UniProt P12273: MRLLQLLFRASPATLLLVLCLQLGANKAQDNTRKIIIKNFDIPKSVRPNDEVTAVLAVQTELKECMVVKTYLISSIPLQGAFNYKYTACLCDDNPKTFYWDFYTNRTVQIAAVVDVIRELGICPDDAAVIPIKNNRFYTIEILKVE
UniProt Q6PCE3: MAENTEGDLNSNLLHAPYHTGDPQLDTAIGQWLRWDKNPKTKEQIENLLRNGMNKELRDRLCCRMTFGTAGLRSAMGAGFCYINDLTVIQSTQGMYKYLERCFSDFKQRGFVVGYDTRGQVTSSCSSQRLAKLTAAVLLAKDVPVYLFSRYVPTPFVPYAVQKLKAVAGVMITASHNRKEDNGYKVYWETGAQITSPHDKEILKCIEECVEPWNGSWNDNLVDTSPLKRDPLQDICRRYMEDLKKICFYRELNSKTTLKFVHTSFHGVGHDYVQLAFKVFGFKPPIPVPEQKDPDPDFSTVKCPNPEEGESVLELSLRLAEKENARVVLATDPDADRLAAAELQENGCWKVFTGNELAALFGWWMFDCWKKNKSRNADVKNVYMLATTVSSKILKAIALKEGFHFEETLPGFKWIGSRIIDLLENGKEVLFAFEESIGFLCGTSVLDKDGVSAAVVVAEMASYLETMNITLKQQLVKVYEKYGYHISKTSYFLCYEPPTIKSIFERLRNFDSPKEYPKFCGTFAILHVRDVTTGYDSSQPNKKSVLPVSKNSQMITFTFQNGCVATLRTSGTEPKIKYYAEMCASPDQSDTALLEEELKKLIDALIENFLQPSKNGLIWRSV
UniProt Q86T03: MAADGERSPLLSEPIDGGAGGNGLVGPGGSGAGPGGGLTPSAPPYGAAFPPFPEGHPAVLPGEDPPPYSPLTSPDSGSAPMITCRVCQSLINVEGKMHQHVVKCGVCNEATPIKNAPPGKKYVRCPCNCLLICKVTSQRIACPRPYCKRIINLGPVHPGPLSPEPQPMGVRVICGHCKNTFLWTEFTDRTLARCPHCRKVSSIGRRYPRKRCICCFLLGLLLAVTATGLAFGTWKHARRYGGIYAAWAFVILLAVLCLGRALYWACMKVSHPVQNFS

This is one part of the list.

Holding throughout (assay): log2 fold change, soluble protein after heating vs DMSO (PISA); higher = thermal stabilisation; K562 lysate, 10 uM; active = over 0.2 and 3.5 SD of the protein, either way, in both replicates (recomputed)
Compound in one assay: CS(=O)(=O)CCNCc1ccc(-c2ccc3ncnc(Nc4ccc(OCc5cccc(F)c5)c(Cl)c4)c3c2)o1 [lapatinib]
The method, boiled down: (§1)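 Pellets of K562 cells were dounce-homogenised in PBS pH 7.4 with 1 mM MgCl2, and the crude extract was held at 1 mg/mL protein for a 30 min treatment with 10 μM compound. Aliquots were heated for 3 min over 48°C-58°C and pooled before NP-40 was added to 0.5% at 4°C. The supernatant from 21,000xg for 90 min was quantified by TMTpro 16plex LC-MS/MS with channel sums equalised. Values are reported from duplicates as log-two fold change in thermal stability relative to solvent controls.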

Compound in a further assay: CS(=O)(=O)N1CCN(Cc2cc3nc(-c4cccc5[nH]ncc45)nc(N4CCOCC4)c3s2)CC1 [pictilisib]
An outline of the steps: as §1

Compound in a further assay: C[C@@H](Oc1cc(-c2cnn(C3CCNCC3)c2)cnc1N)c1c(Cl)ccc(F)c1Cl [crizotinib]
The method, boiled down:
as §1

Compound in assay [1]: C[C@H](C1=CC=C(C=C1)C(=O)NC2=C3C=CNC3=NC=C2)N
An outline of the steps: as §1

Compound in a further assay: C[C@H](Nc1ncnc2nc[nH]c12)c1cc2cccc(Cl)c2c(=O)n1-c1ccccc1 [duvelisib]
The method, boiled down:
as §1

Compound in another assay: Cc1cc(Nc2cc(CN3CCOCC3)c3nc(C)c(Cc4ccc(Cl)cc4F)n3n2)n[nH]1 [gandotinib]
An outline of the steps:
as §1

Compound in another assay: Cc1cc(Nc2cc(N3CCN(C)CC3)nc(Sc3ccc(NC(=O)C4CC4)cc3)n2)n[nH]1 [tozasertib]
An outline of the steps:
as §1

Compound in a further assay: Cc1ccc(-n2nc(C(C)(C)C)cc2NC(=O)Nc2ccc(OCCN3CCOCC3)c3ccccc23)cc1 [doramapimod]
The method, boiled down: as §1

Compound in another assay: Cc1ccc(NC(=O)c2ccc(CN3CC[C@H](N(C)C)C3)c(C(F)(F)F)c2)cc1Nc1nccc(-c2cncnc2)n1 [bafetinib]
The method, boiled down:
as §1

Compound in assay [2]: Cc1cccc(CC(=O)N2CCc3c2ccc(-c2cn(C)c4ncnc(N)c24)c3F)n1
The method, boiled down: as §1

Take PIK3C3 (UniProt Q8NEB9): the log2 fold change with lapatinib was inactive: -0.066; with pictilisib, inactive: 0.041; with crizotinib, inactive: -0.009; in [1], inactive: -0.137; with duvelisib it was inactive: 0.107; with gandotinib, active: 0.272. Also, the log2 fold change in the assay with tozasertib is inactive: -0.042; with doramapimod, inactive: -0.005; in the assay with bafetinib, inactive: -0.013; in [2], inactive: 0.133.

As for PIN4 isoform 2 (UniProt Q9Y237), the log2 fold change with lapatinib was inactive: -0.007; with pictilisib, inactive: 0; with crizotinib, inactive: 0.063; in assay [1], inactive: -0.028; in the assay with duvelisib it was inactive: 0.032; with gandotinib it was inactive: 0.034. Further, the log2 fold change with tozasertib was inactive: 0.006; in the assay with doramapimod, inactive: 0.015; with bafetinib, inactive: 0.016; in [2] it was inactive: -0.009.

Regarding PHYKPL (UniProt Q8IUZ5), the log2 fold change with lapatinib was inactive: -0.019; in the assay with pictilisib, inactive: -0.117; with crizotinib, inactive: 0.017; in assay [1], inactive: -0.066; in the assay with duvelisib it was inactive: 0.219; in the assay with gandotinib, inactive: 0.031. Moreover, the log2 fold change with tozasertib was inactive: 0.064; with doramapimod, inactive: 0.016; in the assay with bafetinib it was inactive: -0.072; in [2] it was inactive: 0.014.

As to PIGA (UniProt P37287), the log2 fold change is inactive: -0.015 with lapatinib; inactive: -0.164 with pictilisib; inactive: -0.048 with crizotinib; inactive: -0.099 in assay [1]; inactive: 0.004 with duvelisib; inactive: -0.001 with gandotinib. Further, the log2 fold change was inactive: 0.009 with tozasertib, inactive: 0.057 in the assay with doramapimod, inactive: -0.066 with bafetinib and inactive: 0.101 in assay [2].

As to PLEKHF1 (UniProt Q96S99), the log2 fold change with lapatinib is inactive: -0.022; with pictilisib it was inactive: -0.016; in the assay with crizotinib, inactive: -0.021; in [1] it was inactive: -0.043; in the assay with duvelisib, inactive: 0.058; in the assay with gandotinib, inactive: 0.023. Also, the log2 fold change is inactive: 0.02 with tozasertib, inactive: 0.016 with doramapimod, inactive: 0.013 in the assay with bafetinib and inactive: 0.026 in [2].

For PGRMC2 isoform 2 (UniProt O15173), the log2 fold change with lapatinib was inactive: 0.016; with pictilisib it was inactive: -0.03; in the assay with crizotinib it was inactive: 0.003; in assay [1], inactive: -0.022; with duvelisib it was inactive: -0.007; in the assay with gandotinib it was inactive: 0.034. In addition, the log2 fold change in the assay with tozasertib is inactive: 0; in the assay with doramapimod it was inactive: -0.015; with bafetinib, inactive: -0.006; in assay [2], inactive: 0.002.

Turning to PIP4P2 (UniProt Q8N4L2), the log2 fold change is inactive: 0.021 with lapatinib; inactive: -0.019 with pictilisib; inactive: 0.021 in the assay with crizotinib; inactive: 0.053 in assay [1]; inactive: 0.027 in the assay with duvelisib; inactive: -0.021 with gandotinib. Also, the log2 fold change with tozasertib is inactive: 0.061; with doramapimod, inactive: 0.033; in the assay with bafetinib, inactive: -0.09; in assay [2] it was inactive: -0.009.

In the case of PLCG1 isoform 2 (UniProt P19174), the log2 fold change is inactive: 0.01 with lapatinib; inactive: -0.006 with pictilisib; inactive: -0.078 in the assay with crizotinib; inactive: -0.075 in [1]; inactive: 0.013 in the assay with duvelisib; inactive: 0.052 in the assay with gandotinib. The log2 fold change was inactive: 0.079 with tozasertib, inactive: 0.014 with doramapimod, inactive: -0.043 with bafetinib and inactive: 0.079 in assay [2].

As for PGK1 (UniProt P00558), the log2 fold change was inactive: -0.014 with lapatinib; inactive: 0.004 in the assay with pictilisib; inactive: 0.031 in the assay with crizotinib; inactive: 0.063 in assay [1]; inactive: -0.012 in the assay with duvelisib; inactive: -0.032 in the assay with gandotinib. The log2 fold change in the assay with tozasertib is inactive: -0.018; with doramapimod, inactive: -0.024; with bafetinib, inactive: 0.01; in [2], inactive: -0.024.

In the case of PIGT, A0A1W2PP13, in the assay with lapatinib, the log2 fold change was inactive: -0.06.

As for PITPNA (UniProt Q00169), the log2 fold change with lapatinib was inactive: -0.01; in the assay with pictilisib, inactive: 0.003; in the assay with crizotinib, inactive: 0.012; in assay [1] it was inactive: 0.092; with duvelisib it was inactive: 0.003; with gandotinib it was inactive: -0.04. Besides, the log2 fold change in the assay with tozasertib was inactive: 0.006; with doramapimod, inactive: 0.014; with bafetinib it was inactive: -0.009; in [2], inactive: -0.069.

On to PIP (UniProt P12273), for which the log2 fold change is inactive: 0.434 in the assay with lapatinib; inactive: 0.379 in the assay with pictilisib; inactive: 0.065 with crizotinib; inactive: 0.564 in [1]; inactive: -0.081 with duvelisib; inactive: -0.338 with gandotinib. Further, the log2 fold change with tozasertib is inactive: 0.45; with doramapimod, inactive: -0.118; with bafetinib, inactive: 0.22; in [2] it was inactive: 0.197.

Consider PGM2L1 (UniProt Q6PCE3), for which the log2 fold change with lapatinib was inactive: -0.018; in the assay with pictilisib, inactive: 0.023; with crizotinib, inactive: -0.012; in [1] it was inactive: -0.051; in the assay with duvelisib, inactive: 0.062; with gandotinib, inactive: 0.007. Moreover, the log2 fold change with tozasertib is inactive: -0.058; in the assay with doramapimod, inactive: 0.063; with bafetinib, inactive: -0.014; in assay [2], inactive: 0.036.

Turning to PIP4P1 isoform 2 (UniProt Q86T03), the log2 fold change with lapatinib is inactive: 0.047; with pictilisib, inactive: -0.083; with crizotinib, inactive: -0.005; in [1] it was inactive: -0.108; with duvelisib it was inactive: 0.115; with gandotinib it was inactive: 0.015. In addition, the log2 fold change was inactive: 0.057 with tozasertib, inactive: 0.041 with doramapimod, inactive: 0.1 with bafetinib and inactive: 0.042 in [2].

Consider PHRF1 (UniProt Q9P1Y6), for which the log2 fold change is inactive: -0.092 with lapatinib; inactive: -0.075 with pictilisib; inactive: 0.025 in the assay with crizotinib; inactive: -0.038 in [1]; inactive: -0.006 with duvelisib; inactive: 0.071 with gandotinib. Further, the log2 fold change is inactive: 0.004 in the assay with tozasertib, inactive: 0.009 in the assay with doramapimod, inactive: 0.059 with bafetinib and inactive: 0.086 in [2].
